# Assay results published in PubChem BioAssay AID2685 (National Center for Advancing Translational Sciences (NCATS), 2010).
# The other results are listed elsewhere or left out. Further columns of the screen follow, without active or inactive calls. Compounds called inactive in the main read-out are mostly missing here. Words in brackets tell the shape of the fitted curve; partial curves, single points and poor fits give uncertain potencies.
# Test: qHTS Assay for Lipid Storage Modulators in Drosophila S3 Cells;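 on cell number change: cells counted by Cell Tracker Red CMTPX staining in the red channel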
# Conditions: BODIPY lipid droplet fluorescence, 18-24 h; for cell number change: measured here: cell count max response, cells fed with added oleic acid
# Method in brief: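 Laser-scanning cytometry quantifies lipid droplet accumulation (500–530 nm total intensity; droplet/cell object ratio) in oleic acid-fed (400 uM added) Drosophila S3 cells treated with a concentration series. 20 uM Triacsin C defined 100% inhibition.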
# [1] = measured here: lipid fluorescence (Fed channel) AC50, cells fed with added oleic acid
# [2] = measured here: cell number channel AC50, cells fed with added oleic acid
compound,measurement,setting,value
CCOc1cccc(C(=O)Nc2ccccc2C(=O)N2CCN(C)CC2)c1,cell number change,,0.495%
same,AC50,[1],"29.1 µM [rising, single point]"
CCOC(=O)C(=CNc1ccc2c(c1)nnn2-c1ccc(Cl)cc1)C(=O)OCC,cell number change,,45.3%
same,AC50,[2],"0.116 µM [rising, full curve, poor fit]"
COc1ccc(CNS(=O)(=O)c2ccc3c(c2)CCN3C(=O)C2CCC2)cc1,cell number change,,-5.11%
same,AC50,[1],"20.6 µM [rising, single point]"
CCCn1c(N)c(C(=O)CN2CCN(S(=O)(=O)c3cccs3)CC2)c(=O)[nH]c1=O,cell number change,,10.9%
C=CCn1c(SCC(=O)c2[nH]c(C)c(C(=O)OC)c2C)nc2scc(-c3ccc(OC)c(OC)c3)c2c1=O,cell number change,,8.94%
same,AC50,[2],"6.51 µM [falling, single point]"
COC(=O)C1CCN(c2cc(Cl)nc(N)n2)CC1,cell number change,,-4.56%
Nc1nonc1NN=C1CCCCC1,cell number change,,-4.7%
CCOC(=O)N1CCN(C(=O)c2ccc(NS(=O)(=O)c3ccc(F)cc3)cc2)CC1,AC50,[1],"2.31 µM [rising, partial curve]"
COc1cc2c(cc1NC(=O)Nc1ccc(F)cc1)oc1ccccc12,cell number change,,53.1%
same,AC50,[2],"32.6 µM [rising, single point]"
same,AC50,[1],"16.4 µM [rising, single point]"
COc1ccc(-c2cc(C)nc3c(-c4ccccc4)cnn23)cc1,cell number change,,10.2%
same,AC50,[2],"0.0206 µM [rising, full curve, poor fit]"
O=S(=O)(c1ccc(-c2csc(Nc3ccc(Br)cc3)n2)cc1)N1CCCC1,cell number change,,-18.2%
same,AC50,[1],"2.31 µM [falling, full curve]"
CC(C)c1c(C(=O)N/N=C/c2c[nH]c3ccccc23)nnn1-c1nonc1N,cell number change,,-23.3%
same,AC50,[2],"2.59 µM [falling, single point]"
same,AC50,[1],"6.51 µM [falling, single point]"
CCCC(=O)Nc1cc(C)c(NC(=O)c2cccs2)cn1,cell number change,,40%
same,AC50,[2],"14.6 µM [rising, partial curve, poor fit]"
CC(C)c1ccc(OCc2nc(-c3ccccn3)no2)c(Br)c1,cell number change,,33.7%
same,AC50,[2],"18.4 µM [rising, single point]"
COc1ccc(S(=O)(=O)NC(Cc2cnc[nH]2)C(=O)O)cc1 (stereo not given),cell number change,,4.04%
same,AC50,[1],"0.731 µM [falling, full curve, poor fit]"
CCCCN(CC(=O)NC1CC1)S(=O)(=O)c1ccc(OCC)cc1,cell number change,,20.3%
same,AC50,[1],"10.3 µM [rising, single point]"
CC(=O)c1cccc(NC(=O)N2C3CCC2CC(NC(=O)C2CC2)C3)c1 (stereo not given),cell number change,,-8.54%
same,AC50,[1],"29.1 µM [falling, single point]"
Cc1c(C(=O)N2CCCC2)sc(NC(=O)c2cccc(Cl)c2)c1C#N,cell number change,,-19.2%
COc1ccc(OCCC(=O)OCC(=O)NC(=O)NC(C)(C)C)cc1,cell number change,,-5.7%
CCCn1nnc2c(=O)oc3ccccc3c21,cell number change,,-11.3%
same,AC50,[1],"0.146 µM [falling, full curve, poor fit]"
CCCn1c2ccccc2c2cnn(CC(=O)N3CCN(C4CCCCC4)CC3)c(=O)c21,cell number change,,51.4%
same,AC50,[2],"7.31 µM [rising, partial curve, poor fit]"
same,AC50,[1],"29.1 µM [rising, single point]"
COc1cc(NC(=O)CSCC(=O)Nc2cccc(C(F)(F)F)c2)c(Cl)cc1Cl,cell number change,,-62.1%
same,AC50,[2],"25.9 µM [falling, partial curve]"
same,AC50,[1],"0.731 µM [falling, single point]"
c1ccn(-c2ncnc3sc4c(c23)CCCC4)c1,cell number change,,-2.53%
same,AC50,[1],"0.146 µM [falling, full curve]"
CCc1nnc(N/N=C/c2c(F)cccc2Cl)n1N,cell number change,,-16%
same,AC50,[1],"20.6 µM [falling, partial curve, poor fit]"
COc1ccc(/C=C/C(=O)N(CC(C)C)CC(C)C)cc1Br,cell number change,,-16.5%
CCOC(=O)N1CCN(S(=O)(=O)c2ccc(C(=O)N(CCN(C)C)c3nc4ccc(CC)cc4s3)cc2)CC1,cell number change,,26.5%
same,AC50,[1],"0.259 µM [rising, partial curve, poor fit]"
COc1cc(C)ccc1OCc1cc(C(=O)N2CCC(c3ccc(F)cc3)C2)no1 (stereo not given),cell number change,,-8.96%
same,AC50,[1],"9.2 µM [rising, partial curve]"
O=C(Nc1ccccc1N1CCCCC1)c1ccc(-c2ccc(Cl)cc2)o1,AC50,[1],"8.2 µM [falling, partial curve]"
Cc1ccc(CNC(=O)CCNC(=O)c2ccc(Br)o2)cc1,cell number change,,-22.9%
same,AC50,[2],"0.146 µM [falling, full curve, poor fit]"
same,AC50,[1],"0.651 µM [falling, full curve, poor fit]"
CN(CCCOc1ccccc1Br)Cc1ccccc1,cell number change,,-27.6%
same,AC50,[1],"3.66 µM [falling, single point]"
CCCCCCCCOC(=O)C1=C(C)Nc2nnnn2C1c1cccs1 (stereo not given),cell number change,,-89.9%
same,AC50,[2],"23.1 µM [falling, single point]"
same,AC50,[1],"29.1 µM [falling, single point]"
CSc1nnc2ccc(-c3ccccn3)nn12,cell number change,,-31.7%
same,AC50,[2],"8.2 µM [falling, partial curve, poor fit]"
CCCCC(CC)CNC(=O)c1cccs1 (stereo not given),cell number change,,-47.9%
same,AC50,[2],"23.1 µM [falling, single point]"
COCCOC(=O)c1c(C)nc(SCC(=O)Nc2ccc(OC)cc2)c(C#N)c1-c1ccco1,cell number change,,2.84%
COc1ccc(C(=O)C2CCN(CC(=O)Nc3cc(C)cc(C)c3)CC2)cc1,cell number change,,-2.52%
same,AC50,[1],"0.092 µM [rising, partial curve, poor fit]"
Cc1cc(NS(=O)(=O)c2ccc(NC(=O)/C=C/c3ccc(Br)cc3)cc2)no1,cell number change,,-22.1%
same,AC50,[1],"3.66 µM [rising, full curve]"
CCCCC1CCC(c2nc(-c3ccccn3)no2)CC1 (stereo not given),cell number change,,-53.5%
same,AC50,[2],"14.6 µM [falling, partial curve, poor fit]"
same,AC50,[1],"1.64 µM [falling, full curve, poor fit]"
CCOc1ccc(-n2c(C)cc(/C=N\NC(=O)CC(=O)NC3CCCCC3)c2C)cc1,cell number change,,13.4%
same,AC50,[2],"3.26 µM [rising, single point]"
CN1CCN(C(=O)CCN2C(=O)/C(=C\c3ccc(Cl)cc3)SC2=S)CC1,cell number change,,-11.6%
CN1CCN(c2ccc(S(=O)(=O)N3CCCCC3)cc2NC(=O)c2ccc3ccccc3c2)CC1,cell number change,,-33.6%
same,AC50,[2],"29.1 µM [falling, single point]"
same,AC50,[1],"0.206 µM [falling, full curve, poor fit]"
Cc1ccccc1NC(=O)CN(c1ccc(F)cc1)S(C)(=O)=O,cell number change,,8%
same,AC50,[1],"0.291 µM [rising, full curve]"
O=C1ON=C(c2ccccc2)/C1=C/c1ccc(-c2ccccc2[N+](=O)[O-])o1,cell number change,,-36.2%
same,AC50,[2],"0.146 µM [falling, full curve, poor fit]"
same,AC50,[1],"29.1 µM [falling, single point]"
COc1cccc(CCNC(=O)CCc2nnc(-c3ccc4c(c3)OCO4)o2)c1,cell number change,,-1.77%
CCn1c(Cn2nnc(-c3ccccc3)n2)nnc1SCC(=O)Nc1cccc(C(C)=O)c1,cell number change,,23.1%
same,AC50,[1],"1.46 µM [falling, partial curve]"
CC(=O)c1cccc(S(=O)(=O)N2CCCC(c3nc4c(nnn4Cc4ccccc4Cl)c(=O)[nH]3)C2)c1 (stereo not given),cell number change,,-2.42%
COc1ccc(C)cc1NC(=O)NC(C)c1ccncc1 (stereo not given),cell number change,,76.1%
Cc1ccccc1OCC(=O)Nc1ccc2c(c1)OCCO2,cell number change,,15.8%
same,AC50,[1],"7.31 µM [rising, partial curve]"
Cc1cc(N2CCCCC2)n2nc(C)c(-c3ccccc3)c2n1,cell number change,,-15.6%
same,AC50,[1],"0.731 µM [rising, single point]"
CC(C)c1cc(NC(=O)c2ccccc2)cc(C(C)C)c1O,cell number change,,-31%
same,AC50,[2],"11.6 µM [falling, partial curve]"
CSc1ccc(CN2CCN(C(=O)c3ccncc3)CC2)cc1,cell number change,,14.8%
same,AC50,[1],"0.146 µM [rising, full curve, poor fit]"
Cc1ccc(OCC(=O)NNC(=O)C2CSC3(C)CCC(=O)N23)cc1 (stereo not given),AC50,[2],"0.326 µM [rising, single point]"
COc1cc(/C=C2\SC(=S)N(C(C(=O)O)c3ccccc3)C2=O)ccc1O (stereo not given),cell number change,,-98.7%
same,AC50,[2],"2.91 µM [falling, full curve]"
same,AC50,[1],"0.731 µM [falling, full curve]"
CC(=O)c1ccc(S(=O)(=O)N2CCN(CC(=O)Nc3ccc(Cl)c([N+](=O)[O-])c3)CC2)cc1,AC50,[1],"18.4 µM [falling, single point]"
O=S(=O)(O)c1cccc2c(N=Nc3ccc(O)c4ncccc34)cccc12,cell number change,,-19.4%
same,AC50,[2],"0.116 µM [falling, full curve, poor fit]"
COc1ccc(/C(C)=N\Nc2nc(-c3ccc(Cl)cc3)cc(C(F)(F)F)n2)cc1OC,cell number change,,-8.72%
same,AC50,[1],"0.411 µM [rising, full curve, poor fit]"
COc1ccc(C2CC(=O)Oc3cc(O)cc(O)c32)cc1 (stereo not given),AC50,[2],"0.731 µM [falling, single point]"
CCOc1ccc(NC(=O)CN(C)C(=O)c2ccccc2OCCOc2ccccc2)cc1OCC,cell number change,,-8.3%
same,AC50,[1],"2.31 µM [rising, single point]"
NC(=O)C1CCN(CCC(=O)Nc2ccc(F)c(F)c2)CC1,cell number change,,15.8%
same,AC50,[2],"0.411 µM [rising, partial curve, poor fit]"
COc1cccc(OC)c1C(=O)N1CC(C)OC(C)C1 (stereo not given),cell number change,,-9.06%
same,AC50,[1],"14.6 µM [falling, single point]"
Cc1cc(C)c(S(=O)(=O)NCC23C=CC(O2)C2C(=O)N(c4ccccc4)C(=O)C23)c(C)c1 (stereo not given),cell number change,,-80.2%
same,AC50,[2],"29.1 µM [falling, single point]"
same,AC50,[1],"29.1 µM [falling, single point]"

# Given with bars between the fields: entries from further up
compound | measurement | setting | value
CC(C)c1c(C(=O)N/N=C/c2c[nH]c3ccccc23)nnn1-c1nonc1N | AC50 | [2] | 2.59 µM [falling, single point]
same | AC50 | [1] | 6.51 µM [falling, single point]
CCCC(=O)Nc1cc(C)c(NC(=O)c2cccs2)cn1 | cell number change |  | 40%
same | AC50 | [2] | 14.6 µM [rising, partial curve, poor fit]
CC(C)c1ccc(OCc2nc(-c3ccccn3)no2)c(Br)c1 | cell number change |  | 33.7%
same | AC50 | [2] | 18.4 µM [rising, single point]
